Results reported in article PMC3191176.
The exact form of at least one protein or probe is not confirmed. Where cells or extracts were used, other partners may take part. Negatives hold for the conditions tested. The comparison behind a weaker result is the experiment's own reference, which may not be listed here.

Chains of the proteins cited; added tags and fusions are not shown. Chains listed by the source or under a name are the forms on record and can include a tag or linker.
TCF-4 (Jurkat nuclear extract) + beta-catenin (Jurkat nuclear extract), one chain, as listed by the source, chain 2 of 2: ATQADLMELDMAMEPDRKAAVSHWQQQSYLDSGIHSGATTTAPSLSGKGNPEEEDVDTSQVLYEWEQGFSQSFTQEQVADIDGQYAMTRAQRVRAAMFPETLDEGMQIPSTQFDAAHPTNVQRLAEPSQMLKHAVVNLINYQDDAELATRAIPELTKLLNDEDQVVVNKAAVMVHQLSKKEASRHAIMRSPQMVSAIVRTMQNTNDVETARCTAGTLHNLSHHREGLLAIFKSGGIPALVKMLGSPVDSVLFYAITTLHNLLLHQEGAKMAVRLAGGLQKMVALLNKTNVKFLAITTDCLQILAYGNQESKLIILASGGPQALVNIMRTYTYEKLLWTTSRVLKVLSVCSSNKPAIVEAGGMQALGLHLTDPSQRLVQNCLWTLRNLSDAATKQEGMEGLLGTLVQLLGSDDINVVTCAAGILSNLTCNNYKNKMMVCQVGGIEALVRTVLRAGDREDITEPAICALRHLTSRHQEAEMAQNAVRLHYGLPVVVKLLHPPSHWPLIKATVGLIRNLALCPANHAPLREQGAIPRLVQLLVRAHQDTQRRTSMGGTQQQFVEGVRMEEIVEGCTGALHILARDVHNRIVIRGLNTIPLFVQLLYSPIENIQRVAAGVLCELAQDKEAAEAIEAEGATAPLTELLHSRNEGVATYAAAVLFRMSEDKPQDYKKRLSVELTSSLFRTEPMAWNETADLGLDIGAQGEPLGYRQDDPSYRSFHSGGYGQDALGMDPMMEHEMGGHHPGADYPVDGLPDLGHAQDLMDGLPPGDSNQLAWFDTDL
TCF-4 (Jurkat nuclear extract) + beta-catenin (Jurkat nuclear extract), one chain, as listed by the source, chain 1 of 2: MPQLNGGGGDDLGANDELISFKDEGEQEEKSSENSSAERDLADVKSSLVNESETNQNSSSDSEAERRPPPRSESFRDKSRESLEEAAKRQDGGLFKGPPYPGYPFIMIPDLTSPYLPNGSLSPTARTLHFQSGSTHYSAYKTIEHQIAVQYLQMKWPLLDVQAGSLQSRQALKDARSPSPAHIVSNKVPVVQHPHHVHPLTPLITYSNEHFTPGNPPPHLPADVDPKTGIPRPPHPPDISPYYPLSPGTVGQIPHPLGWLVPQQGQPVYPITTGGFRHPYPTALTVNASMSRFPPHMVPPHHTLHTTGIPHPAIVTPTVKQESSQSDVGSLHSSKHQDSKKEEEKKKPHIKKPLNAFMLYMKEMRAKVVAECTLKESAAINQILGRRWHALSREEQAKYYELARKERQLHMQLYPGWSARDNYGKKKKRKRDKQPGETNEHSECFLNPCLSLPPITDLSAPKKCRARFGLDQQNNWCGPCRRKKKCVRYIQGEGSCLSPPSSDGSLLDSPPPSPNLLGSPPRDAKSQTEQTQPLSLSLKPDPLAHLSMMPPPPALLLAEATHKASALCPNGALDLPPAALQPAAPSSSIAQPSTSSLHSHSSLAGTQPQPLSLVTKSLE

Test system: TCF-4 (Jurkat nuclear extract) + beta-catenin (Jurkat nuclear extract)
Assay: EMSA
Conditions: 10 mM Tris-HCl pH 7.5, 50 mM NaCl, 1 mM MgCl2, 0.5 mM EDTA, 0.5 mM DTT, 4% glycerol, 50 ug/ml poly(dI-dC), 8 ug nuclear extract, room temperature, 30 min, protein in an extract, label: 32P 5'-end

Sequence | binding result | binding result (almost lost binding)
GCGAAATCCAAACCAGCT (double strand) [mTBE1] | no binding | –
GTGGGTGTTTGTTTGAGA (double strand) [mTBE2 (-205G allele)] | – | binds more weakly
